In publication PMC3873263:
No constants are given. Whether binding was seen depends on the method and setting. In cells and extracts the contact can be indirect. Some entries that bind do so weakly or less than the wild type. One block for each substance: values may come before it.

Amino acid sequences for entries named in this document (tags omitted). Residues count along the entry.
UniProt Q9NQS3, residues 58-549: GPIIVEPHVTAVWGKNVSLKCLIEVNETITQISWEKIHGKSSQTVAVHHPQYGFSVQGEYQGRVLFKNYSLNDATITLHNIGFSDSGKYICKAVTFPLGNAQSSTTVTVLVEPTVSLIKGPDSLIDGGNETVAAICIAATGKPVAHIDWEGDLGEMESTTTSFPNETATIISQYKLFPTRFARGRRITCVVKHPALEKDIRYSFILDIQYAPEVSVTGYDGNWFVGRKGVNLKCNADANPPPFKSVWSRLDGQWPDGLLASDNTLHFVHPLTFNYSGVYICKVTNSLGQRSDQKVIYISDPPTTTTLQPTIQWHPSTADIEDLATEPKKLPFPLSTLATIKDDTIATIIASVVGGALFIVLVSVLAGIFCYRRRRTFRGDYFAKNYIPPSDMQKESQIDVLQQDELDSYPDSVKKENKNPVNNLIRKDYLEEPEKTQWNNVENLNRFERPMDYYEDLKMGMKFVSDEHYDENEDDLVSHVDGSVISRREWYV
UniProt Q07157: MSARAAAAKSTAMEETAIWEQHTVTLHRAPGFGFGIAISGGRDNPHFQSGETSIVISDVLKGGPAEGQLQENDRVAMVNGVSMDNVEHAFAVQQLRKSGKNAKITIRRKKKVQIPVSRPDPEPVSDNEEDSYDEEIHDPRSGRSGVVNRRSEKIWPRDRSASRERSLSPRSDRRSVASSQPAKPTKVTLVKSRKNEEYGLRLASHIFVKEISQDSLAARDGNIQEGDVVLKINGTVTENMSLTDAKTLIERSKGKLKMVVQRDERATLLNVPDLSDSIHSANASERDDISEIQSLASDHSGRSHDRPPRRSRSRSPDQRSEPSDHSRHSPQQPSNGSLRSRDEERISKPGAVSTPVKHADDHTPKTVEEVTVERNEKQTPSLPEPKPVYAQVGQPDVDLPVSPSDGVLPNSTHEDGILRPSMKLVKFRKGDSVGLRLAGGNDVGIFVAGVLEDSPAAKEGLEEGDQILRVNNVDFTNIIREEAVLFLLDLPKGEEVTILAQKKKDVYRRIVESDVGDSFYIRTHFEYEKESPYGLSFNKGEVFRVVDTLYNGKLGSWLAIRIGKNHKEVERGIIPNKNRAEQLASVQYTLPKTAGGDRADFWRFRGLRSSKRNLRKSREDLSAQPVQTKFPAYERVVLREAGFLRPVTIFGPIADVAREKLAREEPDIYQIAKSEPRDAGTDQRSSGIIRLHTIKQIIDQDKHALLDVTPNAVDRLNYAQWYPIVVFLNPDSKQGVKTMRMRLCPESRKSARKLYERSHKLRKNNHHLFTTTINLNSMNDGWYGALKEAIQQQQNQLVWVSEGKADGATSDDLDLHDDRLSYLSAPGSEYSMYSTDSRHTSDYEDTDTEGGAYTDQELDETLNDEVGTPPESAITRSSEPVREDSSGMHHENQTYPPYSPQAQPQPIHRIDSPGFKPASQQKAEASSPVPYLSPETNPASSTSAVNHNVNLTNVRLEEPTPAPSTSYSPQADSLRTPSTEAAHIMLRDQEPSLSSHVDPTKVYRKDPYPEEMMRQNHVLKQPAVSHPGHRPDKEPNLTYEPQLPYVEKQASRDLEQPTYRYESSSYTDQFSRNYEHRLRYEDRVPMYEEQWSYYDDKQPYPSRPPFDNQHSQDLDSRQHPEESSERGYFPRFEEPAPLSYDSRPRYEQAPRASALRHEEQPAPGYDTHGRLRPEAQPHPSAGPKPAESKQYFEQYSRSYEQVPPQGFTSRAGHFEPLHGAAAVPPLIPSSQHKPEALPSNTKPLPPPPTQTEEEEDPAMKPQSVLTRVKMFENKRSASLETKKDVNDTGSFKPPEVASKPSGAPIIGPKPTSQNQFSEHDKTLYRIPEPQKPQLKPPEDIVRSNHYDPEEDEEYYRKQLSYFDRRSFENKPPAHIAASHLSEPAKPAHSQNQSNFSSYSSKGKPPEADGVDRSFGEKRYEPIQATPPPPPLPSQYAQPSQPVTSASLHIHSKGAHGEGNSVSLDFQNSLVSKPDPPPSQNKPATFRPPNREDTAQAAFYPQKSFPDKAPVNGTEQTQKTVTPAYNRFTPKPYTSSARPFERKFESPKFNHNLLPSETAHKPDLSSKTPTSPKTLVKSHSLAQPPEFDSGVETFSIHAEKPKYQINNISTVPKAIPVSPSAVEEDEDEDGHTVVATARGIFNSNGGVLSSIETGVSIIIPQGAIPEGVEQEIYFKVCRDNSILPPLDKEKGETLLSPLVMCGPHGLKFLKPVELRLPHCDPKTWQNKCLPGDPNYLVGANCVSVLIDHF
UniProt Q13464: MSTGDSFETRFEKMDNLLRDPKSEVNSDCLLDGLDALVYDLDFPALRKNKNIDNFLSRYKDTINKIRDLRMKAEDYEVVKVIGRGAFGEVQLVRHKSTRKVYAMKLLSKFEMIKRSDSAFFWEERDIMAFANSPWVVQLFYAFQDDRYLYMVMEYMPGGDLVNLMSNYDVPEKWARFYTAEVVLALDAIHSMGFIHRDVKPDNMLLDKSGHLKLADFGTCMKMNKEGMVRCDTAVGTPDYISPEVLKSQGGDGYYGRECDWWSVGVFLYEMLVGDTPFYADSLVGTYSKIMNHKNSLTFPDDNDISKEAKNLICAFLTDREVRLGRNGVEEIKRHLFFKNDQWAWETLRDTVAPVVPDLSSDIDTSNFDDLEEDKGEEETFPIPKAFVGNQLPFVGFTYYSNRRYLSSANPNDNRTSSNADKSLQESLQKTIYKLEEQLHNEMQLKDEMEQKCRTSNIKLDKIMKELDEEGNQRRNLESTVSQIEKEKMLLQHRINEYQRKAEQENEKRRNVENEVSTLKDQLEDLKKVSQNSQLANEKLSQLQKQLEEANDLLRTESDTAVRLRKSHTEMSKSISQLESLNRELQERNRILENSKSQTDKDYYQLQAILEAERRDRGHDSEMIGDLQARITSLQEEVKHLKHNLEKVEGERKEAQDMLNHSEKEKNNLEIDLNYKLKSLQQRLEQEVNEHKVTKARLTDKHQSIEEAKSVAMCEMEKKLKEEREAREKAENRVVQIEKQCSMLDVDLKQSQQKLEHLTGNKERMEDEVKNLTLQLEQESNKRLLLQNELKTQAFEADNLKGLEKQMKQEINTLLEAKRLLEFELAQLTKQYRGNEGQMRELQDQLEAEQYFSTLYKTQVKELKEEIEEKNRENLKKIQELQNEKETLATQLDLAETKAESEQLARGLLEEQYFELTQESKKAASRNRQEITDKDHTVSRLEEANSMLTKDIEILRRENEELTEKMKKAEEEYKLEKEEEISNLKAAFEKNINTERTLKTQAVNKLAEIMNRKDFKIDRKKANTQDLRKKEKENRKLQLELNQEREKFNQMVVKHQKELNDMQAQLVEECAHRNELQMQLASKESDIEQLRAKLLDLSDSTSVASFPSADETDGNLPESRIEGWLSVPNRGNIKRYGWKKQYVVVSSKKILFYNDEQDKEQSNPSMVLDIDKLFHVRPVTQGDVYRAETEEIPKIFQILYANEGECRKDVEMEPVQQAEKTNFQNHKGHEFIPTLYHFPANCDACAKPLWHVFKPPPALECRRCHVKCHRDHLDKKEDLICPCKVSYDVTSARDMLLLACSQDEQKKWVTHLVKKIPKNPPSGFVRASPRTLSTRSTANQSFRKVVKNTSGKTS
UniProt P15311: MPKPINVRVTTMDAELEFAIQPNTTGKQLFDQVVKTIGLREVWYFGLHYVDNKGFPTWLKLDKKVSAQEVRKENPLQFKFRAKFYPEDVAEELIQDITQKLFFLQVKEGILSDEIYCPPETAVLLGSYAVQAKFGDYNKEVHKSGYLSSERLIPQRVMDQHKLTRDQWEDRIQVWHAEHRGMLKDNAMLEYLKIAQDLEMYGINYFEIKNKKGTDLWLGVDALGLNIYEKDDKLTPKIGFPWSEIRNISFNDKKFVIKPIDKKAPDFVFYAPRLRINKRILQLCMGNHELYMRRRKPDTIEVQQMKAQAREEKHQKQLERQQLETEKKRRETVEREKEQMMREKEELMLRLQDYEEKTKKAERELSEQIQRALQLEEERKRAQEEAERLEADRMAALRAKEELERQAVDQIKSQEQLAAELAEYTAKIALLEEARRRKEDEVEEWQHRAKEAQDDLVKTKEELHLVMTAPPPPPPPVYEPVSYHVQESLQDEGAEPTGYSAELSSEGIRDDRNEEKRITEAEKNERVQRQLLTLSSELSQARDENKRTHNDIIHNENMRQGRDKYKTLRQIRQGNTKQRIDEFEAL
UniProt P35222: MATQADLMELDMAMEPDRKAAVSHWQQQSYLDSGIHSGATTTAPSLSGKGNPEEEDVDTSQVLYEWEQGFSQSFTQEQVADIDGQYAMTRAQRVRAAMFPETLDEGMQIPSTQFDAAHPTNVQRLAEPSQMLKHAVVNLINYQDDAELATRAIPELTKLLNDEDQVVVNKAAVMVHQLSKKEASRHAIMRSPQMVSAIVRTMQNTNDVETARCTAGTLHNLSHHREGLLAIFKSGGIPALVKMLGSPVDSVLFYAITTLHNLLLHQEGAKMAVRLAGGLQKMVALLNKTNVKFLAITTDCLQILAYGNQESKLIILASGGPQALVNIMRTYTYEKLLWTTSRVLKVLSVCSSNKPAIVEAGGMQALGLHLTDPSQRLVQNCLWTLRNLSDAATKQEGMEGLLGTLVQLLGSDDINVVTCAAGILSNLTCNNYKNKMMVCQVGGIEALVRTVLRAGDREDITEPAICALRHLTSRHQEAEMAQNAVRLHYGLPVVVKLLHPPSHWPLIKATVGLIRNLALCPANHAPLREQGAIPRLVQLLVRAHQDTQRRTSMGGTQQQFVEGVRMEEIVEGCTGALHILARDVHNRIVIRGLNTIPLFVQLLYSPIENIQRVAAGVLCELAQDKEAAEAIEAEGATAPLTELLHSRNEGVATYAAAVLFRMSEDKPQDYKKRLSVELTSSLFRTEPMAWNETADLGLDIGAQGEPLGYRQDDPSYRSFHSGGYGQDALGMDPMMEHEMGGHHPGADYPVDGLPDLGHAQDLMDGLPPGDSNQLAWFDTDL
UniProt P78310, residues 20-365: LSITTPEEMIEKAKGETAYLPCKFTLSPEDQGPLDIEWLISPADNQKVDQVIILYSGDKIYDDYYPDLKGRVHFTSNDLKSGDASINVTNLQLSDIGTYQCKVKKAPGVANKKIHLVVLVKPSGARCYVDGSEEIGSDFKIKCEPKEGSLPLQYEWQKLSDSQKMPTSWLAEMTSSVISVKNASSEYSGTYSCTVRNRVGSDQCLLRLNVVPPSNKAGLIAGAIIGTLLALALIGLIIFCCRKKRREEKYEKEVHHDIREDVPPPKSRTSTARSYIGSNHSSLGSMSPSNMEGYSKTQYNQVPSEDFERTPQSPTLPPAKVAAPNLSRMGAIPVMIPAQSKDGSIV
UniProt P26038: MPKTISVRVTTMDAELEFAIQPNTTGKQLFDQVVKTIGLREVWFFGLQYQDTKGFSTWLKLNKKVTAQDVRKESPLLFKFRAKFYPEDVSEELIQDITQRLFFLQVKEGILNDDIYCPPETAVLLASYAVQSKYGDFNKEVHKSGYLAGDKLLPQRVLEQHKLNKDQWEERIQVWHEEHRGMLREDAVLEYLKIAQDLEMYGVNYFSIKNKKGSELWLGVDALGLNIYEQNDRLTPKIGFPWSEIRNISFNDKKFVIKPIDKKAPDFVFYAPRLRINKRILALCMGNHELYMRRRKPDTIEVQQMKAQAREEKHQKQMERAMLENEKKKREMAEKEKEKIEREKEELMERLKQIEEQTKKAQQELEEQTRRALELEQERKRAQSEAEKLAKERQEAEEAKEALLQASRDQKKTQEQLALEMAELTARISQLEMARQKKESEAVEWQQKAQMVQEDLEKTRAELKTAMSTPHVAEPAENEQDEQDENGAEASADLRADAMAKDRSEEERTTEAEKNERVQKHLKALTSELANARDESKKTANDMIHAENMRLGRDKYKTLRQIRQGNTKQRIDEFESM
UniProt P35241: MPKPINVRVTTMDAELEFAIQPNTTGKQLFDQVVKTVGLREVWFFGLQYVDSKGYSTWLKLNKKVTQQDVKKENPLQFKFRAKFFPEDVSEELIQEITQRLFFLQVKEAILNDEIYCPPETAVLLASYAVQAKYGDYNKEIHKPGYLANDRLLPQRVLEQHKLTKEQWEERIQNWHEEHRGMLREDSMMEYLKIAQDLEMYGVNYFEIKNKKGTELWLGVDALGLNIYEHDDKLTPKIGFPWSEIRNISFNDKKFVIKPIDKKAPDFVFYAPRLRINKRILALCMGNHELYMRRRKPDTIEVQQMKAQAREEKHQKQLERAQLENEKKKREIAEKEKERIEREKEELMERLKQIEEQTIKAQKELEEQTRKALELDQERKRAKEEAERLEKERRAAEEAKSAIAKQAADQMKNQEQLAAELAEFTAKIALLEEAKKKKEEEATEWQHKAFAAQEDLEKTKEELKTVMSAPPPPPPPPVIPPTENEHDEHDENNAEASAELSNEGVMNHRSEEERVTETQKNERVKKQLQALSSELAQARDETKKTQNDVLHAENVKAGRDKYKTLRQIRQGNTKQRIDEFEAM

Experiments:
[1] = biological target: Nectin-3 (human (endogenous in the paper's human cell lines; line not stated)) (UniProt Q9NQS3); assay: co-IP; cell lysate (cell line not stated) precipitated with anti-Nectin-3 antibody (A, C-19, C-terminus) or (B, K-20, internal region), 1:100, protein A/G agarose overnight; blots probed for the partners; lysis in HCMF buffer with 0.5% SDS, 0.5% Triton X-100, 2 mM CaCl2
[2] = biological target: ZO-1 (human (endogenous in the paper's human cell lines; line not stated)) (UniProt Q07157); assay: co-IP; cell lysate (cell line not stated) precipitated with antibodies to the partner proteins, protein A/G agarose; blots probed with anti-Nectin-3 (A) (for Ezrin with A and B); lysis in HCMF buffer with 0.5% SDS, 0.5% Triton X-100, 2 mM CaCl2
[3] = biological target: T1, SIPA-1 (human (endogenous in the paper's human cell lines; line not stated)) (UniProt Q96FS4); assay: as above
T1 sequence: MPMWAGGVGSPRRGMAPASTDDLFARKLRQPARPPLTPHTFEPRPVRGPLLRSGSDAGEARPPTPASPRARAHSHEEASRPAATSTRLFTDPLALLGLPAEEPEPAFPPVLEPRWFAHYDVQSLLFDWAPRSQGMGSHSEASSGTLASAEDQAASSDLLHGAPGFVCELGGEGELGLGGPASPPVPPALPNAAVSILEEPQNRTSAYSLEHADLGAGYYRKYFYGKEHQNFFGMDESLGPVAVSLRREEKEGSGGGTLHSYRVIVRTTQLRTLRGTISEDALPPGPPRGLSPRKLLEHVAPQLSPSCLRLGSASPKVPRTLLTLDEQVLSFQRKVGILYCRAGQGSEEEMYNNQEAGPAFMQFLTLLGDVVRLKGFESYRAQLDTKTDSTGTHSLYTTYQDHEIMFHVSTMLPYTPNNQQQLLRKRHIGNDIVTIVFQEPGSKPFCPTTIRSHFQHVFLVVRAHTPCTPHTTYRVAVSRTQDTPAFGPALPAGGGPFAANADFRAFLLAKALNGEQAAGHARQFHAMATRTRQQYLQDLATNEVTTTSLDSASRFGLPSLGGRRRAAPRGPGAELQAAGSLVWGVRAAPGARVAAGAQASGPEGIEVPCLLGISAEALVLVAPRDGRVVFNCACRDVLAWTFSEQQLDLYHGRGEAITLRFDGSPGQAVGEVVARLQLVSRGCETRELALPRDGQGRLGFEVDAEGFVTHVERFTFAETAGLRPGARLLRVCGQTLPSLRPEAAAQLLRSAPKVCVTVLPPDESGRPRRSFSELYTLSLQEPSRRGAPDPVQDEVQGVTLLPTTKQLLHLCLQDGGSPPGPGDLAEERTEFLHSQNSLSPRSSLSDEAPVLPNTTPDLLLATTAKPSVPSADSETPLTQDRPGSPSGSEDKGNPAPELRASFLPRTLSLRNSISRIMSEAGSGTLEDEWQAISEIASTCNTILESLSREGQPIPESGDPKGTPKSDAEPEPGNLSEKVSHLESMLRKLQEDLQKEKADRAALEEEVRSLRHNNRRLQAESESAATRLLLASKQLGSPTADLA

[4] = biological target: ROCKI (human (endogenous in the paper's human cell lines; line not stated)) (UniProt Q13464); assay: as above
[5] = biological target: Ezrin (human (endogenous in the paper's human cell lines; line not stated)) (UniProt P15311); assay: as above
[6] = biological target: β-catenin (human (endogenous in the paper's human cell lines; line not stated)) (UniProt P35222); assay: as above
[7] = biological target: T2, Occludin (human (endogenous in the paper's human cell lines; line not stated)) (UniProt Q16625); assay: as above
T2 sequence: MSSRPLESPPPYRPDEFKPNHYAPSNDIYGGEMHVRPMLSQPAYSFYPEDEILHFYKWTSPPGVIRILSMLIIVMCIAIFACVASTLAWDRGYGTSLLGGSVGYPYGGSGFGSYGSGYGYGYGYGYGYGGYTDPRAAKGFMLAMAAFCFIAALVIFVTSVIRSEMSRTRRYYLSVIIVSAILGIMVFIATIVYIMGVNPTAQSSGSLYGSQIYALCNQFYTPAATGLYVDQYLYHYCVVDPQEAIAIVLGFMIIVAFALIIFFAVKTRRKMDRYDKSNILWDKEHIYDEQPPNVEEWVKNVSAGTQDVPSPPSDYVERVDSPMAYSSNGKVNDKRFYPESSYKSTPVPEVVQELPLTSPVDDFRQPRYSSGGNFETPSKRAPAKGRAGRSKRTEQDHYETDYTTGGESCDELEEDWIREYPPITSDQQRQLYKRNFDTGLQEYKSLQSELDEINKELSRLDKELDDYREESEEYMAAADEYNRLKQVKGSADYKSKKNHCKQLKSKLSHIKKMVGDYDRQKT

[8] = biological target: CAR (human (endogenous in the paper's human cell lines; line not stated)) (UniProt P78310); assay: as above

binding [1]: binds
Substance: ZO-1 (from UniProt Q07157 1-1748)

binding [1]: binds
Substance: β-catenin (from UniProt P35222 1-781)

The remaining lines, values behind:

Substance: Ezrin (from UniProt P15311 1-586)
binding [1]: binds

Substance: MAGI-2 (from UniProt Q86UL8 1-1455)
binding [1]: binds

Substance: Moesin (from UniProt P26038 1-577)
binding [1]: binds

Substance: Nectin-3 (from UniProt Q9NQS3 58-549)
binding [2]: binds
binding [3]: binds
binding [4]: binds
binding [5]: binds
binding [6]: binds
binding [7]: binds
binding [8]: binds

Substance: Radixin (from UniProt P35241 1-583)
binding [1]: binds
